# The other results are listed elsewhere or left out. Most values lie at the level of the controls, where differences are scatter.
# The chains behind the UniProt entries cited, without tags or fusion partners. Where a name states a change or a piece, a line headed by the entry shows the natural chain unless it says otherwise.
# UniProt A2ARA8: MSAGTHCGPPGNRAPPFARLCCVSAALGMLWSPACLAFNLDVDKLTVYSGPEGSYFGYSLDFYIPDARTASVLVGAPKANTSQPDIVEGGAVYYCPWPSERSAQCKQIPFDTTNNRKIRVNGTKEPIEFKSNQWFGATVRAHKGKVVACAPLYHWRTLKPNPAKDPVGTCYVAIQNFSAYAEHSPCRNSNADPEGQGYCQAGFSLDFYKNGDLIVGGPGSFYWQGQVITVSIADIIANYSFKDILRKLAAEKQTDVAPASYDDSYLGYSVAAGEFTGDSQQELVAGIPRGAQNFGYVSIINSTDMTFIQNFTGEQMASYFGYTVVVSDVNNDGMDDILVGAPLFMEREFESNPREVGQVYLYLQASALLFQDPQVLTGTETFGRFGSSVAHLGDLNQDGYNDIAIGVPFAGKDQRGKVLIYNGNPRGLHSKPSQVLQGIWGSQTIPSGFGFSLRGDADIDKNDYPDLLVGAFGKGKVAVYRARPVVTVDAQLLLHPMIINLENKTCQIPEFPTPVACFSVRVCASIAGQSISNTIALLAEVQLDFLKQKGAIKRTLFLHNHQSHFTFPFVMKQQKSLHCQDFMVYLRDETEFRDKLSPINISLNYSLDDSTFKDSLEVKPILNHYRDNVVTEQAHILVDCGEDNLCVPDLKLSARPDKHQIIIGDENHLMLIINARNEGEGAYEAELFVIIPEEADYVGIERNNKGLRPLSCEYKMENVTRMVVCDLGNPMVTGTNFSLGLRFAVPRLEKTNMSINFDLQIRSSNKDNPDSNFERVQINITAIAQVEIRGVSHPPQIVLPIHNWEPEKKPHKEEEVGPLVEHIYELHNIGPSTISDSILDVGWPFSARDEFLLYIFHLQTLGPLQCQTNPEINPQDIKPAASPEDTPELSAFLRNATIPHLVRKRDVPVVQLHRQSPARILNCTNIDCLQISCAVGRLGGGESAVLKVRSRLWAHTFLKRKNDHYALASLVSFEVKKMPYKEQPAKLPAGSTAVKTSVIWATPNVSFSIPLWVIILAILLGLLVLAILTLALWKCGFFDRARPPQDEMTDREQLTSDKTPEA
# UniProt B1AZI6: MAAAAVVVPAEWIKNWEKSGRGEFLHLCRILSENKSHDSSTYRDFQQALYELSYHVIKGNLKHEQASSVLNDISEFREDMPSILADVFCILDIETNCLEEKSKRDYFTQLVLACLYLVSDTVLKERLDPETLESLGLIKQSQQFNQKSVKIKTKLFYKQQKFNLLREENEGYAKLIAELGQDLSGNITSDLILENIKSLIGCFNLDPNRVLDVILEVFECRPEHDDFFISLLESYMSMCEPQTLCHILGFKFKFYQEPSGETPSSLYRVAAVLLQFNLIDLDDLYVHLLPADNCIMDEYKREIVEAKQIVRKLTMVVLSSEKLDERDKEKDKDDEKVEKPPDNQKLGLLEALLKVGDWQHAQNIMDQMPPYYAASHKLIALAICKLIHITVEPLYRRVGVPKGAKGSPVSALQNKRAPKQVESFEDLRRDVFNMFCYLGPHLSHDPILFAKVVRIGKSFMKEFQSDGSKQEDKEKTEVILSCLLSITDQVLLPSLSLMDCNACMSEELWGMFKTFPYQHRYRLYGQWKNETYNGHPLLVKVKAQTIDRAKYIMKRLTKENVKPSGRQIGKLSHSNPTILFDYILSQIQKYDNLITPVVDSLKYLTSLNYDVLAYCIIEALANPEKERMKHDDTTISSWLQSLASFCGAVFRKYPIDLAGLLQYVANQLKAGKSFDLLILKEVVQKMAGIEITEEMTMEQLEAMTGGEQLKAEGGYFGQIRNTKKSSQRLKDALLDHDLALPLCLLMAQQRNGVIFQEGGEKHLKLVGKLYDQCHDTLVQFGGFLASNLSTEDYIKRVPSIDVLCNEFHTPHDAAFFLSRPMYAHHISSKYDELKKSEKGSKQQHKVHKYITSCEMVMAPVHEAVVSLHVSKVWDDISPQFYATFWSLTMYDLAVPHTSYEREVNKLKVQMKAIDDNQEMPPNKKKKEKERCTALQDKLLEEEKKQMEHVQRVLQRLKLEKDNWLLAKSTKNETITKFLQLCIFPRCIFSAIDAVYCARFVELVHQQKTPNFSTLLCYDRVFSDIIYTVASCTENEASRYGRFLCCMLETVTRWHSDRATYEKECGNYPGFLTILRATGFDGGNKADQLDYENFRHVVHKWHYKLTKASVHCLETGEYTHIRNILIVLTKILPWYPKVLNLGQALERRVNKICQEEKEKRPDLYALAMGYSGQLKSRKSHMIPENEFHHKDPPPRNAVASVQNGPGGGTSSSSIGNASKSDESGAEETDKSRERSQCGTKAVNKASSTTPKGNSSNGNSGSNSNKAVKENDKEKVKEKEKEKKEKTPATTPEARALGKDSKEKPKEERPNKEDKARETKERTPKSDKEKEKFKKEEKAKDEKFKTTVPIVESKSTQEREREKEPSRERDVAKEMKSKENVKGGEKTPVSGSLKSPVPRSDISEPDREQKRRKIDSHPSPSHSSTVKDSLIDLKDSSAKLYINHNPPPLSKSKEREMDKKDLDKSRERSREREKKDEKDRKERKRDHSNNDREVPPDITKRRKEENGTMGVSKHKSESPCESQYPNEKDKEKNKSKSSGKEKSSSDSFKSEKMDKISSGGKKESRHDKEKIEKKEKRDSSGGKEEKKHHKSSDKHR
# UniProt F6XLV1: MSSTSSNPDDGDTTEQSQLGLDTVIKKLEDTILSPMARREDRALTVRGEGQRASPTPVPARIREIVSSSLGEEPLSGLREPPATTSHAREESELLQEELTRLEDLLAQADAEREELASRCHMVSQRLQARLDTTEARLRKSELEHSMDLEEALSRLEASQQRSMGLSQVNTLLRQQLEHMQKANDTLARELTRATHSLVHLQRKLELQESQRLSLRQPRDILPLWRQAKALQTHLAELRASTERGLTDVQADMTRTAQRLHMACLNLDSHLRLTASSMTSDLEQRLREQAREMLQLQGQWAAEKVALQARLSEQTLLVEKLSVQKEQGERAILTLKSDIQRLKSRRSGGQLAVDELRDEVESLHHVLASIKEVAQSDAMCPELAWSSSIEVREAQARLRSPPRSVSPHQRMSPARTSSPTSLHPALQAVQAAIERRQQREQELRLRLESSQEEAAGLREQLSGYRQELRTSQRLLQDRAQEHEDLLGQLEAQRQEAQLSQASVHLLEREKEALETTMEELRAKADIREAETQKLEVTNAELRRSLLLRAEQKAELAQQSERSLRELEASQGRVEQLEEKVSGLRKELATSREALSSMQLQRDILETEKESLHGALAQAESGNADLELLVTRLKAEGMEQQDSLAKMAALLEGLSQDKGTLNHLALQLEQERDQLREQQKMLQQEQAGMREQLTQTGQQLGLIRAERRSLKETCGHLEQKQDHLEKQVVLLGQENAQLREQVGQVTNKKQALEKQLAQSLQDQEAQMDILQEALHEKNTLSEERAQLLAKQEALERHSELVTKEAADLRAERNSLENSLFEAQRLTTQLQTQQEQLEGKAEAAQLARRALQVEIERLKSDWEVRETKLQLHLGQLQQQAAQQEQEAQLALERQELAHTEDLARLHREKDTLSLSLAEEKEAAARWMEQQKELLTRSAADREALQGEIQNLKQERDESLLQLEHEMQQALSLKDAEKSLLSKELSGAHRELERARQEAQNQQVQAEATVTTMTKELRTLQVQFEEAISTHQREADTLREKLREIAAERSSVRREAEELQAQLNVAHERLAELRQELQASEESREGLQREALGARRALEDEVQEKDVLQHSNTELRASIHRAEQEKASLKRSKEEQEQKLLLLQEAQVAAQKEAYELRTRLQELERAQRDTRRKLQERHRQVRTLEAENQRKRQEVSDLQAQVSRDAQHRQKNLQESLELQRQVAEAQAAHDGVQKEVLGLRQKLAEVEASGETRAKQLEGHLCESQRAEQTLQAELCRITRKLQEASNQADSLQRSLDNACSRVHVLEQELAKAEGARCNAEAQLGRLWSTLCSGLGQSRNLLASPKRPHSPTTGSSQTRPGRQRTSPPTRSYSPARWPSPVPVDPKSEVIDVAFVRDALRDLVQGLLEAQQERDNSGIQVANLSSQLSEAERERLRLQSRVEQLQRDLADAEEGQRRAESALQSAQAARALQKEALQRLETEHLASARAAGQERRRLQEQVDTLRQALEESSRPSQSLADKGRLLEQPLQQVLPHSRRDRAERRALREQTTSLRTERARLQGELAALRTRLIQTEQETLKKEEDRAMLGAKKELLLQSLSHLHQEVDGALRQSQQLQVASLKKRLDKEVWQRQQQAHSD
# UniProt B2RX14: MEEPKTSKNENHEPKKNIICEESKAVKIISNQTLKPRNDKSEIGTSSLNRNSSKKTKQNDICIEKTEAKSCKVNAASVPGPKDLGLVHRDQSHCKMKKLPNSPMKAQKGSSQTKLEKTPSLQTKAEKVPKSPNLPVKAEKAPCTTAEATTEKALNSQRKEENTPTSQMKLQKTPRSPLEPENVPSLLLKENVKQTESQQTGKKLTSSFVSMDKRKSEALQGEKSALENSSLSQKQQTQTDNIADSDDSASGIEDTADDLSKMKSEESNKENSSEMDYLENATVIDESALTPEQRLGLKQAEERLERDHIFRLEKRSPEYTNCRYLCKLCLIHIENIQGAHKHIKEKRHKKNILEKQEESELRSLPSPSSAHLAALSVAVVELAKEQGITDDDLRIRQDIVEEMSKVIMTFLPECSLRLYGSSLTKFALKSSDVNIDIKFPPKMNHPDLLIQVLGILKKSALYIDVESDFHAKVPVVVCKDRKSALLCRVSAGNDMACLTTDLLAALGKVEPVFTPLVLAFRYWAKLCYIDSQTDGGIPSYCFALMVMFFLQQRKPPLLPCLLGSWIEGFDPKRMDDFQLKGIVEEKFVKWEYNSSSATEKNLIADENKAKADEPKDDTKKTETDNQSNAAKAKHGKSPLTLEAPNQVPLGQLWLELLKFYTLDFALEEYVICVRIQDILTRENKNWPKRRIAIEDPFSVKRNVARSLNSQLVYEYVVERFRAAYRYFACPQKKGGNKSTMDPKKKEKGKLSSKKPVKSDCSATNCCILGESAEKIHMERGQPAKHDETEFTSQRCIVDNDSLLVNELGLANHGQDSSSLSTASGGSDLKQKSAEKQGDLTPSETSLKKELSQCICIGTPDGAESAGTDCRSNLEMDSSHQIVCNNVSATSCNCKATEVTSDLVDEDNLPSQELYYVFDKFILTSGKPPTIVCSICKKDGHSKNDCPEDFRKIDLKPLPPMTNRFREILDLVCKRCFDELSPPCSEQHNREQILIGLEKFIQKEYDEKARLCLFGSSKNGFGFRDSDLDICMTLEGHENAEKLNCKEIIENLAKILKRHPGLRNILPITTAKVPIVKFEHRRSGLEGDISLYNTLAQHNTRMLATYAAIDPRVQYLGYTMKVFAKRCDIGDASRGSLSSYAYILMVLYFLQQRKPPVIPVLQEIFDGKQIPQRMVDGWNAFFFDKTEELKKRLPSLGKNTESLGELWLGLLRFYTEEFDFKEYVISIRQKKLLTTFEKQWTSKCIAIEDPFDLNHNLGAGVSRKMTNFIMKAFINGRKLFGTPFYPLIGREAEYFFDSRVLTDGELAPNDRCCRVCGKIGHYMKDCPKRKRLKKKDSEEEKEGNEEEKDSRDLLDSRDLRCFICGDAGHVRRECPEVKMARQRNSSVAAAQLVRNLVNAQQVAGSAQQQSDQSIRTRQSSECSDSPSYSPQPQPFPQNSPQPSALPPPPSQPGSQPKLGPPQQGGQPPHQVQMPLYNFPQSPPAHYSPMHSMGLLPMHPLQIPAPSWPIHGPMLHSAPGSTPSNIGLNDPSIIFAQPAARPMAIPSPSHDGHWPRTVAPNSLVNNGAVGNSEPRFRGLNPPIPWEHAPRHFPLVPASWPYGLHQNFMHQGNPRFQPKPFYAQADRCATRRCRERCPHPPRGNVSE
# UniProt B2RVL6: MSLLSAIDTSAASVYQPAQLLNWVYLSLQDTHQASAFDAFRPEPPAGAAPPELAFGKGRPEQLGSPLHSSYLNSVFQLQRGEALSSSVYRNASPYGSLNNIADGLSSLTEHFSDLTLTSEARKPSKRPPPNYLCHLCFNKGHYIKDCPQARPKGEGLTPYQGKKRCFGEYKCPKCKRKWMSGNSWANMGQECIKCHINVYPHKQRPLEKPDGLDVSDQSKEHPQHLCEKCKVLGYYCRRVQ
# UniProt A2AEP0: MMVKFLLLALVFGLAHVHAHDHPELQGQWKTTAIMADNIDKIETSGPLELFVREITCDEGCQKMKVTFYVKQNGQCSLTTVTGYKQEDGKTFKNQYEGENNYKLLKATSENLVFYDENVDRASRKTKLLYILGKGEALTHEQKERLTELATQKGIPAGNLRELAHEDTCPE
# UniProt B1AXP6: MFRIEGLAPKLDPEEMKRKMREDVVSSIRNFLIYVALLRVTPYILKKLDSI
# Compound: CN[C@@H]1C[C@H]2O[C@@](C)([C@@H]1OC)n1c3ccccc3c3c4c(c5c6ccccc6n2c5c31)C(=O)NC4 [staurosporine]
# Assay: log2 fold change of pooled soluble protein (PISA), ligand vs vehicle (log2 ratio); higher = more thermally stabilized
# Conditions: ligand concentration: 20 uM; assay format: PISA pool 52.9/55.5/58.6 C
row,Target,log2 fold change of pooled soluble protein
1,UniProt A2ARZ3,-0.0553
2,UniProt A2ARA8,-0.03
3,UniProt B1AZI6,-0.0477
4,UniProt E9Q8G5,0.0623
5,UniProt E9Q3C1,-0.0436
6,UniProt F6XLV1,0.0844
7,UniProt A2ALU4,-0.0775
8,C0HKG5;C0HKG6,0.0439
9,UniProt E9Q555,-0.106
10,UniProt E9Q5K4,-0.0919
11,UniProt A2AWR3,0.084
12,UniProt D3YXK2,0.00766
13,UniProt A2ADY9,-0.0193
14,UniProt A2RTL5,-0.38
15,UniProt B2RX14,-0.0429
16,UniProt B2RVL6,0.115
17,UniProt E9PVB5,-0.149

# In a second layout: results already given
row	Target	log2 fold change of pooled soluble protein
14	UniProt A2RTL5	-0.38
15	UniProt B2RX14	-0.0429

# Later entries:

row,Target,log2 fold change of pooled soluble protein
1,UniProt B1AZP2,0.0618
2,UniProt A2AEP0,0.0856
3,UniProt A2BH40,-0.194
4,UniProt D3Z5L6,0.0851
5,UniProt B9EKI3,-0.0114
6,UniProt A6H8H2,0.0343
7,UniProt E9Q414,0.00212
8,UniProt A2AJL3,0.148
9,UniProt B2RRE7,0.00395
10,UniProt D3Z6Q9,-0.0717
11,UniProt A2A6A1,-0.157
12,UniProt B7ZCC9,0.0151
13,UniProt B1AXP6,-0.28
14,UniProt A1L3P4,-0.171
15,UniProt E9Q5F9,0.228
16,UniProt E9Q912,-0.109

# Source: the supplement of paper PMC12819154, “High-throughput peptide-centric local stability assay extends protein–ligand identification to membrane proteins, tissues and bacteria” (Nature Structural & Molecular Biology, 2025)
